Source: PubChem BioAssay AID602196 (INSERM, 2012)

Aim: 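Genes whose knock-down alters cisplatin killing of lung cancer cells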
System: human A549 lung cancer cells
Knock-down reagent: siRNA pair against human genes
Timing: 48 h transfection before cisplatin; time from cisplatin to read-out not stated
Conditions: cisplatin at a dose killing half of control-siRNA cells; exact dose and duration not given
Detection: 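Cisplatin cell death as a shift from the 50% death seen with control siRNA; siRNAs toxic or growth-blocking alone scored 0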
Scale: two-siRNA summed score (-2 to +2): higher = both siRNAs protect from cisplatin killing; -2 means both sensitise; mean protection from cisplatin (shift in death) and protection from cisplatin (shift in death), siRNA C and protection from cisplatin (shift in death), siRNA D: higher = protection from cisplatin killing
Hit rule: 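siRNAs harmful alone (LDH or WST-1) get 0; others get +1 for less and -1 for more cisplatin killing; genes are active when the two siRNAs give the same sign, summing to ±2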
Meaning of the calls: active = both siRNAs shift cisplatin killing the same way; inactive = no consistent shift, or siRNA harmful alone
This is a random part of about 23,000 reagents tested. 455 of all reagents (2%) were called active. 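Active includes both protection and sensitisation; some change values fall well beyond the stated -50 to +50 range.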 Reagents against one gene are numbered here. Not given: the amount of reagent.

no.	gene	reagent	two-siRNA summed score (-2 to +2)	mean protection from cisplatin (shift in death) (%)	protection from cisplatin (shift in death), siRNA C (%)	protection from cisplatin (shift in death), siRNA D (%)	Outcome
1	ANG	1	0	1	1.5	0.5	inactive
2	LOC441850	1	0	12	6.4	17.5	inactive
3	LINC00265	1	0	-1.1	-1	-1.2	inactive
4	TENT5B	1	0	1.4	-0.6	3.5	inactive
5	TMEM92	1	0	-3.6	-12.9	5.6	inactive
6	LOC440349	1	0	14.4	1.4	27.4	inactive
7	LOC441951	1	0	11.8	3.6	20	inactive
8	CTNND1	1	0	-7.9	-21.3	5.5	inactive
9	LOC440501	1	1	10.9	15.3	6.4	inactive
10	STK31	1	0	7.3	6.7	7.9	inactive
11	LOC145660	1	0	-1.1	8.7	-10.9	inactive
12	KLF12	1	0	2.8	-6.1	11.7	inactive
13	VCAN	1	-1	-4	2.2	-10.2	inactive
14	ZNF493	1	0	10.5	14	6.9	inactive
15	ZNF493	2	1	17.9	21	14.8	inactive
16	LOC441059	1	0	8.9	8.3	9.5	inactive
17	CTSG	1	0	-10.3	-27.5	7	inactive
18	LOC441535	1	0	17.9	14.4	21.3	inactive
19	LOC441121	1	1	9.5	12.9	6	inactive
20	DDX3X	1	1	11.1	9.5	12.7	inactive
21	GOLGA7B	1	0	3.9	3.7	4.1	inactive
22	LOC400985	1	0	1.3	11.8	-9.2	inactive
23	LOC442003	1	1	9.4	6.1	12.6	inactive
24	LOC440094	1	0	15.8	0.8	30.7	inactive

10 entries from above, ordered by “protection from cisplatin (shift in death), siRNA C (%)”, descending:
gene	reagent	two-siRNA summed score (-2 to +2)	mean protection from cisplatin (shift in death) (%)	protection from cisplatin (shift in death), siRNA C (%)	protection from cisplatin (shift in death), siRNA D (%)	Outcome
LOC440501	1	1	10.9	15.3	6.4	inactive
LOC145660	1	0	-1.1	8.7	-10.9	inactive
STK31	1	0	7.3	6.7	7.9	inactive
LOC441951	1	0	11.8	3.6	20	inactive
LOC440349	1	0	14.4	1.4	27.4	inactive
TENT5B	1	0	1.4	-0.6	3.5	inactive
LINC00265	1	0	-1.1	-1	-1.2	inactive
KLF12	1	0	2.8	-6.1	11.7	inactive
TMEM92	1	0	-3.6	-12.9	5.6	inactive
CTNND1	1	0	-7.9	-21.3	5.5	inactive

Further records follow.
no.	gene	reagent	two-siRNA summed score (-2 to +2)	mean protection from cisplatin (shift in death) (%)	protection from cisplatin (shift in death), siRNA C (%)	protection from cisplatin (shift in death), siRNA D (%)	Outcome
25	FMNL1	1	0	-6.1	-6.5	-5.7	inactive
26	RAB40A	1	2	24.5	24	25	active
27	DOC2B	1	0	-4.2	13.3	-21.7	inactive
28	LOC440442	1	2	14.5	15.4	13.6	active
29	LOC440343	1	0	7.6	2.9	12.2	inactive
30	DHX32	1	0	6.4	-6.3	19.1	inactive
31	ABHD16A	1	0	17.1	28.6	5.6	inactive
32	LOC389452	1	0	2.9	3.9	1.9	inactive
33	RIPOR3	1	0	6.7	-1.4	14.8	inactive
34	PSME3IP1	1	0	6.9	14.9	-1.2	inactive
35	PLA2G2A	1	0	-2.3	-14.3	9.7	inactive
36	IFI27L1	1	2	20.7	16.2	25.3	active
37	ADISSP	1	0	12.8	7.9	17.7	inactive
38	FANCC	1	0	-2.9	3.8	-9.6	inactive
39	MBIP	1	0	4.9	4.3	5.5	inactive
40	HAUS5	1	0	6.8	8.6	5.1	inactive
41	ARR3	1	1	8.2	26.4	-10	inactive
42	KPNA4	1	0	7.5	1.3	13.7	inactive
43	FSHR	1	0	5.2	20.6	-10.2	inactive
44	TSPAN18	1	0	11.2	10.4	12	inactive
45	SEMA6A	1	0	-18.9	-8.5	-29.4	inactive
46	CHRDL2	1	0	-0.2	6.7	-7.2	inactive
47	SPDYE3	1	0	11.8	8.1	15.5	inactive
48	SOHLH2	1	0	9.2	4.6	13.7	inactive
49	OGFOD1	1	0	-2.5	3.2	-8.2	inactive
50	GADD45A	1	0	-0.1	4.2	-4.4	inactive
51	NDUFAF4	1	0	12.7	22.2	3.2	inactive
52	CPNE7	1	0	6.3	8.1	4.6	inactive
53	FOXD4L4	1	-1	-5.6	-9.1	-2.2	inactive
54	LOC440942	1	1	15	6.9	23.1	inactive
55	FHL2	1	0	9	12.1	6	inactive
56	IFT81	1	1	5.1	1.1	9.2	inactive
57	LOC390213	1	1	3.3	-15.6	22.1	inactive
58	ZMIZ1-AS1	1	0	2.4	10.8	-6.1	inactive
59	CHD8	1	-1	-4.5	10.5	-19.5	inactive
60	SLC35A3	1	0	14.5	15.2	13.9	inactive
61	PPDPF	1	1	15.9	11.5	20.3	inactive
62	DDX39B	1	0	16.1	10.4	21.7	inactive
63	TRMT1L	1	0	3.1	4.1	2.1	inactive
64	IL17RC	1	0	3.7	9	-1.6	inactive
65	C6orf15	1	1	22.1	30.4	13.8	inactive
66	SUPV3L1	1	1	0.8	14.3	-12.6	inactive
67	ANKRD31	1	0	5.5	11.6	-0.6	inactive
68	AGL	1	0	3	0.9	5.1	inactive
69	PINX1	1	0	0	-2.8	2.9	inactive
70	RRH	1	1	13.6	23.7	3.5	inactive
71	ZSCAN26	1	0	-5.9	-11.7	-0.2	inactive
72	MBTPS2	1	-1	-9.5	-0.3	-18.8	inactive
73	PAX9	1	0	-5.5	-21	10.1	inactive
